Experimental data published in PubChem BioAssay AID1307 (SRMLSC, 2008).
Out of some 1,200 compounds screened, fewer than 10 were called active.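 Rule for the calls: active = inhibition reaching a set limit at one or more tested concentrations; inactive = inhibition under that limit at every dose.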 The list shows a part of the results. Measured potencies and affinities stand elsewhere.

Test: RAM pathway signaling blockade in S. cerevisiae – dose response (AID 1307);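 note: 0% = DMSO vehicle wells and 100% = 10 µM 1-NA-PP1 control; higher inhibition means more yeast growth since RAM block rescues cells from 5-FOA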
Details: S. cerevisiae RAM network URA3 reporter, 5-FOA growth OD615, active compounds read high, yeast express analog-sensitive mutant Cbk1 kinase; at 100 µM unless noted

Max inhibition, inactive:
Cc1cccc(OCc2nnc(SCC(=O)c3ccccc3)o2)c1 1.64% [at 6.25 µM], COc1cc(/C=C(\C#N)c2ccccn2)ccc1OCc1ccc(Cl)cc1 1.91% [at 6.25 µM], CCOC(=O)c1c(-c2ccccc2)csc1NC(=O)CSc1ccccc1 4.04%, CCCCCOC(=O)C1C(c2ccccc2)C(C(=O)O)C1c1ccccc1 (centres undefined) 2.33% [at 25 µM], CCOC(=O)CCCSc1nc(-c2ccc3c(c2)OCO3)cc(C(F)(F)F)c1C#N 3.71% [at 25 µM], Cc1cccc(Nc2nnc(SCC3CCCCO3)s2)c1 (centres undefined) 4.62% [at 0.196 µM], Cc1c(N=Nc2ccc(N(C)C)cc2)c(=O)n(-c2ccccc2)n1C 20.4%, O=C(c1cc(COc2ccc(F)cc2Cl)on1)N1CCCC(c2ccccc2)C1 (centres undefined) 6.3% [at 25 µM], Cc1ccc(-n2c(SCC(=O)Nc3cccc(S(=O)(=O)NC4=NCCCCC4)c3)nc3ccccc3c2=O)cc1C 11%, COc1cccc(CNC(=O)CNC(=S)N(Cc2ccccc2)Cc2ccccc2F)c1 3.12% [at 50 µM], COc1ccc(/C=C/C(=O)Nc2cc(S(=O)(=O)N3CCCCC3)ccc2N2CCCCC2)cc1OC 15.4%, CCOc1ccc(-c2nn(-c3ccccc3)cc2/C=C2\SC(=S)N(Cc3ccco3)C2=O)cc1 5.18%, CCn1cc(C(=O)OCC(=O)c2ccccc2)c(=O)c2ccc(C)nc21 6.73% [at 25 µM], CCCCN(CCCC)S(=O)(=O)c1ccc(NS(=O)(=O)c2ccc(NC(C)=O)cc2)cc1 4.62%, N#Cc1ccsc1NC(=O)COC(=O)CCCSc1nc2ccccc2s1 2.77% [at 50 µM], N#C/C(=C\c1ccc(-c2ccc(S(=O)(=O)N3CCOCC3)cc2)o1)C(=O)NC1CC1 2.77% [at 12.5 µM], O=C(O)CSc1nc(-c2ccc(Cl)cc2)nc2c1oc1ccccc12 6.31% [at 50 µM], CCN=c1scc(-c2cccs2)n1/N=C/c1cc(OC)ccc1O 3.13% [at 50 µM], Cc1ccc(S(=O)(=O)c2c(CO)c(-c3ccccc3)nn2C)cc1 3.46% [at 6.25 µM], C/C=C/c1ccc(OCC(=O)OCc2csc(Nc3ccc(C)cc3)n2)c(OC)c1 2.31% [at 50 µM], CCOC(=O)c1c(C)[nH]c(C)c1C(=O)COC(=O)/C=C/c1cccc(C(F)(F)F)c1 3.23% [at 3.125 µM], CCCN(CC1CC1)C(=O)COC(=O)c1ccc(CNS(=O)(=O)c2ccc(F)c(Cl)c2)cc1 2.14% [at 0.196 µM], Cc1cc(Oc2ccc(Cl)cc2)nc(-c2ccccc2O)n1 2.24%, CCCCCOP(=O)(OCCCCC)C1(NS(=O)(=O)c2ccccc2)C=CC(=O)c2ccccc21 (centres undefined) 2.83%, CCCCCCOC(=O)c1ccc(NC(=O)c2cc(OC)c(OC)c(OC)c2Br)cc1 3.97% [at 50 µM], Cc1ccc(NC(=O)c2oc3ccc(S(=O)(=O)N4CCC5(CC4)OCCO5)cc3c2C)cc1C 5.31%, Cc1ccc(C(=O)c2cc3ccccc3o2)cc1C 2.43% [at 0.196 µM], Cc1ccc(C(C)C)c(OCC(=O)OCc2c(C)noc2C)c1 1.54% [at 1.563 µM], Cc1ccc(SCC(=O)N2c3ccccc3Sc3ccccc32)cc1 1.96% [at 12.5 µM], CCC(C)c1ccc(NC(=S)NCc2ccccc2OC)cc1 (centres undefined) 5.65%, CC(C)C[C@@H](CN(C)N=O)N(C[C@H](Cc1ccccc1)N(CCc1ccccc1)N=O)N=O 5.42% [at 50 µM], CCOC(=O)c1cc(C(C)C)sc1NC(=O)COC(=O)CCS(=O)(=O)c1ccccc1 3.24% [at 50 µM], CCOc1ccc(S(=O)(=O)N(C)c2ccc(OCC(=O)OCc3c(C)noc3C)cc2)cc1 2.94% [at 12.5 µM], CC1=NN(c2nc(-c3ccc(C)cc3)cs2)C(=O)C1N=Nc1ccc(C(N)=O)cc1 (centres undefined) 10.3%, COC(=O)[C@H](Cc1ccccc1)NC(=O)[C@@]1(C)C[C@@H]1[C@@H](NC(=O)OCc1ccccc1)c1ccccc1 5.9%, CC(C)CSc1nc(N2CCOCC2)c2c(c1C#N)CC(C)(C)SC2 3.89% [at 50 µM], C=C(C)COc1ccc(-c2[nH]ncc2-c2ccc(OC)c(OC)c2)c(O)c1 2.65% [at 50 µM], O=C(NCc1ccccc1)C1=C[C@@H](c2ccc(C(F)(F)F)cc2)C[C@@H](OCc2ccc(CO)cc2)O1 6.79%, CCOC(=O)C1CN(S(=O)(=O)c2cccc(C(F)(F)F)c2)c2cc(CC(=O)OC)ccc2O1 (centres undefined) 2.04% [at 25 µM], CCOC(=O)c1c(NC(=O)CSc2nncs2)sc(C)c1-c1ccccc1 4.59%, O=C(NCCc1ccccc1)c1oc2ccccc2c1COc1ccccc1 3.75%, Fc1ccc(CSc2nnc(Cc3sc(-c4ccccc4)nc3-c3ccccc3)o2)cc1 5.66%, COCCOC(=O)c1c(C)oc2ccc(OC(=O)COc3c(F)c(F)c(F)c(F)c3F)cc12 2.19%, CC(O)C(NS(=O)(=O)c1ccc(Cl)cc1)C(=O)OCc1cc([N+](=O)[O-])cc2c1OCOC2 (centres undefined) 3.12%, Cc1cc(Br)ccc1OCC(=O)N1CCCCCC1 1.81% [at 0.782 µM], COc1ccc(-c2nc3ccccc3c(=O)n2CCOc2cccc(C)c2C)cc1 3.33% [at 0.196 µM], CCOC(=O)C1(CCOc2ccccc2)CCN(C(=O)c2ccc(-n3cccn3)cc2)CC1 3.48% [at 25 µM], CCOc1ccc2nc(SCC(=O)c3ccccc3)sc2c1 3% [at 0.196 µM], Cc1cc(S(=O)(=O)N(Cc2cccs2)Cc2ccccc2F)ccc1-n1cnnn1 1.54% [at 1.563 µM]
